Laboratory results: PubChem BioAssay AID504804 (Drosophila RNAi Screening Center, 2011)
The screen tested about 19,000 reagents; this is an unselected part of those that have a named target and a result. In the full data, 47 (0.25%) are marked active. 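Signals are raw, not normalised; exact z-scores behind calls not deposited; actives needed confirmation, so some wells reaching 2 SD are inactive.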

Screen: 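Fly genes whose loss lessens doxorubicin-driven cell death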 (primary screen)
Cell system: Drosophila Kc cells
Reagents: long dsRNA against Drosophila genes, 0.5 µg dsRNA per well
Duration: 96 h (48 h knock-down, then 48 h drug)
Conditions: doxorubicin 5 µg/ml for 48 h, added 48 h after dsRNA
Read-out: 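Viability measured as cellular ATP by luminescence after 48 h knock-down then 48 h doxorubicin at 5 µg/ml; unnormalised plate counts for each replicate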
Scale: raw ATP luminescence: higher = more viable cells, protection from doxorubicin
Rule for the call: 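z-score of 2 or more over plate mean in both duplicates, retained only when retests and separate dsRNAs confirm the protection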

Wdfy2 [DRSC02822]: raw ATP luminescence, replicate 1 = 95813; raw ATP luminescence, replicate 2 = 70213; call = inactive
CG10063 [DRSC09688]: raw ATP luminescence, replicate 1 = 73197; raw ATP luminescence, replicate 2 = 85303; call = inactive
CG42591 [DRSC08905]: raw ATP luminescence, replicate 1 = 1.26e5; raw ATP luminescence, replicate 2 = 1.20e5; call = inactive
PGAP2 [DRSC00632]: raw ATP luminescence, replicate 1 = 58440; raw ATP luminescence, replicate 2 = 37833; call = inactive
Dpm1 [DRSC02018]: raw ATP luminescence, replicate 1 = 69670; raw ATP luminescence, replicate 2 = 63190; call = inactive
Srp9 [DRSC10973]: raw ATP luminescence, replicate 1 = 68167; raw ATP luminescence, replicate 2 = 63003; call = inactive
Hr38 [DRSC03345]: raw ATP luminescence, replicate 1 = 32853; raw ATP luminescence, replicate 2 = 33567; call = inactive
how [DRSC16966]: raw ATP luminescence, replicate 1 = 31280; raw ATP luminescence, replicate 2 = 32070; call = inactive
alpha4GT2 [DRSC15905]: raw ATP luminescence, replicate 1 = 75060; raw ATP luminescence, replicate 2 = 81220; call = inactive
CG9568 [DRSC03265]: raw ATP luminescence, replicate 1 = 43520; raw ATP luminescence, replicate 2 = 80227; call = inactive
Tsr1 [DRSC11821]: raw ATP luminescence, replicate 1 = 19837; raw ATP luminescence, replicate 2 = 22713; call = inactive
ttk [DRSC14078]: raw ATP luminescence, replicate 1 = 2.02e5; raw ATP luminescence, replicate 2 = 2.04e5; call = inactive
ttk [DRSC17091]: raw ATP luminescence, replicate 1 = 35740; raw ATP luminescence, replicate 2 = 41200; call = inactive
CG5783 [DRSC02894]: raw ATP luminescence, replicate 1 = 63590; raw ATP luminescence, replicate 2 = 64800; call = inactive
mex1 [DRSC11368]: raw ATP luminescence, replicate 1 = 38220; raw ATP luminescence, replicate 2 = 33260; call = inactive
CG9676 [DRSC20204]: raw ATP luminescence, replicate 1 = 3.77e5; raw ATP luminescence, replicate 2 = 3.36e5; call = inactive
CG6738 [DRSC16104]: raw ATP luminescence, replicate 1 = 83210; raw ATP luminescence, replicate 2 = 80600; call = inactive
sinah [DRSC09910]: raw ATP luminescence, replicate 1 = 61163; raw ATP luminescence, replicate 2 = 42233; call = inactive
Tim17b2 [DRSC03457]: raw ATP luminescence, replicate 1 = 75217; raw ATP luminescence, replicate 2 = 80297; call = inactive
CG17019 [DRSC06642]: raw ATP luminescence, replicate 1 = 69563; raw ATP luminescence, replicate 2 = 79850; call = inactive
CG32647 [DRSC19690]: raw ATP luminescence, replicate 1 = 3.02e5; raw ATP luminescence, replicate 2 = 3.14e5; call = inactive
CG32647 [DRSC19878]: raw ATP luminescence, replicate 1 = 2.44e5; raw ATP luminescence, replicate 2 = 3.07e5; call = inactive
CLIP-190 [DRSC03283]: raw ATP luminescence, replicate 1 = 94463; raw ATP luminescence, replicate 2 = 85173; call = inactive
Vps60 [DRSC10610]: raw ATP luminescence, replicate 1 = 64037; raw ATP luminescence, replicate 2 = 64403; call = inactive
CG32809 [DRSC18507]: raw ATP luminescence, replicate 1 = 2.54e5; raw ATP luminescence, replicate 2 = 2.91e5; call = inactive
CG32809 [DRSC18562]: raw ATP luminescence, replicate 1 = 49870; raw ATP luminescence, replicate 2 = 58070; call = inactive
nAChRalpha5 [DRSC01360]: raw ATP luminescence, replicate 1 = 2.41e5; raw ATP luminescence, replicate 2 = 2.67e5; call = inactive
nAChRalpha5 [DRSC01946]: raw ATP luminescence, replicate 1 = 23153; raw ATP luminescence, replicate 2 = 60117; call = inactive
nAChRalpha5 [DRSC01947]: raw ATP luminescence, replicate 1 = 53427; raw ATP luminescence, replicate 2 = 55987; call = inactive

Laid out differently: results already given
ttk [DRSC17091]
- raw ATP luminescence, replicate 1: 35740
- raw ATP luminescence, replicate 2: 41200
- call: inactive

CG5783 [DRSC02894]
- raw ATP luminescence, replicate 1: 63590
- raw ATP luminescence, replicate 2: 64800
- call: inactive

mex1 [DRSC11368]
- raw ATP luminescence, replicate 1: 38220
- raw ATP luminescence, replicate 2: 33260
- call: inactive

CG9676 [DRSC20204]
- raw ATP luminescence, replicate 1: 3.77e5
- raw ATP luminescence, replicate 2: 3.36e5
- call: inactive
